Experimental data from US9206226B2, “Non-ionic acid-labile surfactants and methods of use” (Protea Biosciences, Inc., priority 2011, dated 2015).

System: myoglobin
Assay: MALDI-TOF mass spectra of myoglobin with surfactant, intact and acid-degraded
Conditions: for myoglobin MALDI signal after surfactant degradation: degraded about 30 minutes in 1% TFA at pH 2.5
From the text: The various embodiments of non-ionic acid-labile surfactants and methods of use described herein may be better understood when read in conjunction with the following representative examples. The following examples are included for purposes of illustration and not limitation. MALDI-TOF spectra were acquired using an ABI 4800 mass spectrometer in the linear mode.
Referring to FIGS. 1A-C, 0.1% N-[2,2-Bis(pentyloxy)propan-1-aminocarbonyl]-β-maltosylamine was mixed with myoglobin in water. The samples were spotted onto a MALDI pre-spotted target with α-cyano-4-hydroxycinnamic acid (CHCA) MALDI matrix using C8 reversed phase tips. FIG. 1A includes a mass spectra of 20 pmol myoglobin in water. Myoglobin was detected at m/z 8488 and m/z 16979. FIG. 1B includes a mass spectra of 20 pmol myoglobin dissolved in 0.1% N-[2,2-Bis(pentyloxy)propan-1-aminocarbonyl]-β-maltosylamine. […] FIG. 1C includes a mass spectra of 20 pmol myoglobin dissolved in 0.1% N-[2,2-Bis(pentyloxy)propan-1-aminocarbonyl]-β-maltosylamine after being degraded for about thirty (30) minutes in 1% trifluoroacetic acid (TFA) at pH 2.5. Myoglobin was detected at m/z 8482 and m/z 16967.
Referring to FIGS. 4A-C 1% N-[2,2-Bis(hexyloxy)propan-1-aminocarbonyl]-β-maltosylamine was mixed with myoglobin. The samples were spotted onto a MALDI pre-spotted target with α-cyano-4-hydroxycinnamic acid (CHCA) MALDI matrix using C8 reversed phase tips. FIG. 5A includes a mass spectra of 20 pmol myoglobin in water. Myoglobin was detected at m/z 8488 and m/z 16979. FIG. 4B includes a mass spectra of 20 pmol myoglobin dissolved in 1% N-[2,2-Bis(hexyloxy)propan-1-aminocarbonyl]-β-maltosylamine. […] FIG. 5C includes a mass spectra of 20 pmol myoglobin dissolved in 1% N-[2,2-Bis(hexyloxy)propan-1-aminocarbonyl]-β-maltosylamine after being degraded for about thirty (30) minutes in 1% trifluoroacetic acid (TFA) at pH 2.5. Myoglobin was detected at m/z 8492 and m/z 16986.

Compound	myoglobin MALDI signal, intact surfactant (20 pmol myoglobin dissolved in 1% surfactant)	myoglobin MALDI signal after surfactant degradation (1% surfactant)	myoglobin MALDI signal, intact surfactant (20 pmol myoglobin dissolved in 0.1% surfactant)	myoglobin MALDI signal after surfactant degradation (0.1% surfactant)
CCCCCCOC(C)(CNC(=O)NC1OC(CO)C(OC2OC(CO)C(O)C(O)C2O)C(O)C1O)OCCCCCC (stereo not drawn) [N-[2,2-Bis(hexyloxy)propan-1-aminocarbonyl]-β-maltosylamine]	no signal from the myoglobin was detected	a signal from the myoglobin was detected when the surfactant was degraded		
CCCCCOC(C)(CNC(=O)NC1OC(CO)C(OC2OC(CO)C(O)C(O)C2O)C(O)C1O)OCCCCC (stereo not drawn) [N-[2,2-Bis(pentyloxy)propan-1-aminocarbonyl]-β-maltosylamine]			no signal from the myoglobin was detected	a signal from the myoglobin was detected when the surfactant was degraded
